Data from PubChem BioAssay AID504467 (National Center for Advancing Translational Sciences (NCATS), 2011).
Among all 330,000 compounds or so, about 7,700 (2.3%) were called active. The shares of active, inactive and inconclusive entries below differ from those in the screen. The call rests on the fitted dose curve; in most records, active means well fitted inhibition curve with a large enough effect; inconclusive means small, poorly fitted or top-dose-only effect, or effect the other way; inactive means flat fitted curve, though single readings scatter. A potency beside an inconclusive call is a rough fit, not a confirmed value.

test: qHTS screen for small molecules that inhibit ELG1-dependent DNA repair in human embryonic kidney (HEK293T) cells expressing luciferase-tagged ELG1; conditions: HEK293T ELG1-luciferase reporter, luminescence, 16 h, DNA damage induced by 5-fluorouridine; activity change, negative = inhibition: at 46.1 µM (top of the series); further: nearly all actives have a fitted effect of over 55% in size
Summary of the method: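 DMSO vehicle served as the neutral condition. Each well held 2,000 cells given 5-fluorouridine plus compound; after 16 hr at 37 °C/5% CO2, ONE-Glo was added and luciferase measured 30 min later.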
On the % scale 0 is the no-effect control and ±100 the full control effect; potency means the concentration at half of the fitted maximal effect.

| Structure (SMILES) | Potency | activity change, negative = inhibition |
| --- | --- | --- |
| CN1/C(=C\C(=O)c2cncc(Br)c2)C(C)(C)c2ccccc21 | active: 16.4 µM |  |
| N#CCSC1=Nc2ccccc2C2=NC(CCC(=O)N3CCN(c4ccccc4)CC3)C(=O)N12 (stereo unspecified) | inconclusive: 20.6 µM [inhibitor, single point] |  |
| O=C(CN1CCN(c2ccccn2)CC1)Nc1ccc(F)cc1F |  | inactive: 18% |
| CCCOc1ccc(NC(=O)c2c(-c3ccccc3)noc2C)cc1 |  | inactive: -0.634% |
| Cc1cc(C)c2c(N)c(C(=O)NCc3ccco3)sc2n1 |  | inactive: 12.5% |
| CC1CCN(Cc2nc(-c3ccccc3)no2)CC1 | inconclusive: 10.3 µM [activator, partial curve] |  |
| CC(C)(C)c1ccc(CNc2ccc([N+](=O)[O-])cn2)cc1 | inconclusive: 4.61 µM [activator, partial curve, poor fit] |  |
| CCN1C(=O)C(CC(=O)Nc2ccc(OC)cc2)N(Cc2ccc(OC)c(OC)c2)C1=S (stereo unspecified) |  | inactive: -8.27% |
| CCc1n[nH]c(=S)n1/N=C/C(C)=C\c1ccccc1 |  | inactive: -14.8% |
| O=C(O)CC/C(=N/NC(=O)CNC(=O)Cc1ccc(Cl)cc1)c1ccccc1 | inconclusive: 23.1 µM [activator, partial curve] |  |
| COc1ccc(S(=O)(=O)NCCc2ccccc2)c2cccnc12 | inconclusive: 20.6 µM [inhibitor, partial curve, poor fit] |  |
| Cc1ccc(S(=O)(=O)/N=C(\Sc2ccccc2)c2ccccc2)cc1 | inconclusive: 0.146 µM [activator, full curve, poor fit] |  |
| Cc1cc(C(=O)N2CCc3ccccc32)c2cc(F)ccc2n1 | inconclusive: 29.1 µM [activator, single point] |  |
| COc1ccc(C(=O)N2CCN(c3ccc(NC(=O)Cc4ccccc4)cc3)CC2)cc1 | active: 9.2 µM |  |
| CCOc1ccc(/C=C2\SC(=S)N(CC(=O)Nc3ccccn3)C2=O)cc1 | inconclusive: 20.6 µM [activator, single point] |  |
| CCOc1ccc(CN2CCNC(=O)C2CC(=O)O)cc1 (stereo unspecified) |  | inactive: 1.73% |
| COc1ccc2c(=O)c3c(=O)n(Cc4ccco4)c(-c4ccco4)nc3oc2c1 |  | inactive: -6.37% |
| CCCC(C(=O)NC(C)(C)C)N(C(=O)c1snc(C(N)=O)c1N)c1ccc2c(c1)OCCO2 (stereo unspecified) | inconclusive: 2.59 µM [activator, full curve] |  |
| O=C(CN1CCOCCOCCOCCOCC1)Nc1ccccc1 | inconclusive: 20.6 µM [activator, single point] |  |
| CNC(=S)NC(CC(=O)OC)c1ccc2c(c1)OCO2 (stereo unspecified) |  | inactive: 7.43% |
| Cc1ccc(NC(NC(=O)OCCn2c([N+](=O)[O-])cnc2C)C(Cl)(Cl)Cl)cc1 (stereo unspecified) |  | inactive: 7.71% |
| CCC1=C/C(=C/c2sc3ccccc3[n+]2CC)CC(C)(C)C1 |  | inactive: -8.51% |
| COc1cc(NC(=O)CSc2c3c(nc4ccccc24)CCC3)cc(OC)c1OC | inconclusive: 13 µM [inhibitor, partial curve] |  |
| Cc1c(C(=O)NCc2cccnc2)sc2nc(-c3ccc(F)cc3)cn12 | inconclusive: 29.1 µM [inhibitor, single point] |  |

| Structure (SMILES) | Potency | activity change, negative = inhibition |
| --- | --- | --- |
| Cc1ccc2c(c1)oc(=O)n2CC(=O)c1ccccc1 |  | inactive: 9.47% |
| CCOC(=O)N1CCN(C(=O)CCCCn2c(=S)[nH]c3ccsc3c2=O)CC1 |  | inactive: -2.5% |
| Cc1ccc2cccc(NC(=S)NC(=O)c3ccn(C)n3)c2n1 | inconclusive: 18.4 µM [inhibitor, single point] |  |
| O=C(Cn1cnc([N+](=O)[O-])n1)N/N=C/c1cccc(Cl)c1 |  | inactive: 6.21% |
| Cc1noc(/C=C/c2ccco2)c1S(=O)(=O)N1CCC(C(=O)N(C)Cc2ccccc2)CC1 | active: 4.61 µM |  |
| Cc1ccc(S(=O)(=O)N2CCOCC2)cc1C(=O)N1c2ccccc2Sc2ccccc21 | inconclusive: 10.3 µM [inhibitor, partial curve, poor fit] |  |
| Cc1nc2sccn2c1P(c1c(C)nc2sccn12)c1c(C)nc2sccn12 |  | inactive: 2.18% |
| CCCn1c(=O)c(C(=O)Nc2ccccc2)c(O)c2ccccc21 | inconclusive: 16.4 µM [activator, partial curve, poor fit] |  |
| Cc1ccc(Nc2ccc(C(N)=O)cc2[N+](=O)[O-])cc1C | inconclusive: 2.06 µM [inhibitor, full curve] |  |
| O=c1cc(N2CCN(c3cccc(Cl)c3)CC2)[nH]c(=O)n1C1CCCCC1 |  | inactive: 10.9% |
| Cc1nn(-c2ccccc2)c2nc(C(Cl)(Cl)Cl)[nH]c(=O)c12 | inconclusive: 29.1 µM [inhibitor, single point] |  |
| Nc1nc(NCC(=O)O)nc(NCc2ccccc2)c1[N+](=O)[O-] | inconclusive: 20.6 µM [activator, partial curve, poor fit] |  |
| Cc1nc(SCc2ccc(Cl)c(Cl)c2)n[nH]1 | inconclusive: 20.6 µM [activator, partial curve] |  |
| CCOC(=O)C1(Cc2ccc(O)cc2)NC(c2ccccc2F)C2C(=O)N(C)C(=O)C21 (stereo unspecified) | inconclusive: 18.4 µM [inhibitor, partial curve, poor fit] |  |
| CCOC(=O)C(C)Sc1nc2ccccc2c(=O)n1CC (stereo unspecified) |  | inactive: 4.36% |
| CC(C)(C)CC(=O)Nc1nnc(-c2cccs2)s1 | inconclusive: 4.61 µM [activator, full curve] |  |
| CCN(CC)S(=O)(=O)c1cc(-c2nnc(-c3ccc(Br)cc3)o2)ccc1Br | inconclusive: 20.6 µM [inhibitor, partial curve, poor fit] |  |
| COC(=O)c1cc2sc(Cl)cc2n1CC(=O)Nc1cccc(SC)c1 | inconclusive: 25.9 µM [inhibitor, partial curve, poor fit] |  |
| CCCc1cc(=O)[nH]c(SCC(=O)Nc2cc(S(=O)(=O)N3CCCCC3)ccc2C)n1 |  | inactive: 5.6% |
| COc1ccc(-n2c(Cc3cccn3C)nnc2SCC(=O)Nc2ccc(C)cc2)cc1 |  | inactive: -4.71% |
| Cc1oc(-c2cccc(Cl)c2)nc1CN(C)C1CCOC1 (stereo unspecified) |  | inactive: -1.88% |
| CCc1ccc(NC(=O)CSc2nc3ccsc3c(=O)n2CCC(=O)O)cc1 | inconclusive: 20.6 µM [activator, single point] |  |
| O=C(COc1ccc2c(c1)oc(=O)c1ccccc12)NCC1CCC(C(=O)O)CC1 (stereo unspecified) |  | inactive: 21% |
| COc1ccc(OC)c(NS(=O)(=O)c2ccc(NC(=O)C3COc4ccccc4O3)cc2)c1 (stereo unspecified) | inconclusive: 25.9 µM [inhibitor, single point] |  |

| Structure (SMILES) | Potency | activity change, negative = inhibition |
| --- | --- | --- |
| Cc1cc(NC(=O)C(C)SCC(=O)Nc2ccc(SC(F)F)cc2)no1 (stereo unspecified) | inconclusive: 29.1 µM [inhibitor, single point] |  |
| CCOc1ccc(NC(=O)c2c(NC(=O)CN3CCN(C)CC3)sc3c2CCC3)cc1 |  | inactive: 0.794% |
| CCn1cc(C(=O)NCCCN(C)c2ccccc2)c(=O)c2cc(S(=O)(=O)N(C)C)ccc21 | inconclusive: 16.4 µM [inhibitor, single point] |  |
| COc1cccc(C2c3[nH]c4ccccc4c3C[C@H]3C(=O)N(c4ccccc4C(=O)N4CCC[C@H]4C(=O)O)C(=O)N23)c1 (stereo partly specified) | inconclusive: 25.9 µM [activator, single point] |  |
| CC(C)(C)NS(=O)(=O)c1ccc(NC(=O)C(Sc2ccccc2)c2ccccc2)cc1 (stereo unspecified) | inconclusive: 29.1 µM [inhibitor, single point] |  |
| O=C(Nc1sc2c(c1C(=O)NCc1cccnc1)CCCC2)c1ccco1 |  | inactive: -20.6% |
| O=C(CNC(=O)c1ccccc1Cl)N/N=C/c1ccc([N+](=O)[O-])s1 | inconclusive: 16.4 µM [inhibitor, partial curve] |  |
| NC(N)=NC(=S)Nc1ccc(Cl)cc1 | inconclusive: 10.3 µM [activator, partial curve] |  |
| Cc1ccc(N=c2c([N+](=O)[O-])nn(-c3ccc4c(c3)OCCO4)n2O)cc1F | inconclusive: 23.1 µM [activator, partial curve] |  |
| CCN(C(=O)CN1C(=S)NC(C)(C)CC1C)c1ccc(C)c(C)c1 (stereo unspecified) |  | inactive: 3.46% |
| CC(=O)Nc1ccc(-c2csc(NC(=O)CCNC(=O)c3ccco3)n2)cc1 | inconclusive: 5.17 µM [inhibitor, partial curve, poor fit] |  |
| COc1ccc(S(=O)(=O)NCC(=O)N(CC(=O)NCC2CCCO2)Cc2ccc(F)cc2)cc1 (stereo unspecified) |  | inactive: 21.3% |
| COC(CNC(=O)c1c[nH]c2ccc(S(=O)(=O)N3CCC4(CC3)OCCO4)cc2c1=O)OC | inconclusive: 20.6 µM [inhibitor, partial curve, poor fit] |  |
| Cc1ccc(NC(=O)c2ccc3ccccc3n2)cc1S(=O)(=O)N1CCOCC1 | inconclusive: 29.1 µM [inhibitor, single point] |  |
| O=C(N/N=C/c1c(O)n(Cc2ccccc2)c(=O)c2ccccc12)c1cccnc1 | inconclusive: 29.1 µM [inhibitor, single point] |  |
| COc1ccc(NC(=O)c2sccc2OS(=O)(=O)N(C)C)cc1 |  | inactive: -10.7% |
| Nc1ccc2c(c1)nc(Cc1ccccc1)n2CCO | inconclusive: 23.1 µM [activator, partial curve, poor fit] |  |
| CN1C(=O)/C(=C/c2ccccc2Cl)Sc2ccc(C(=O)N3CCCC3)cc21 | inconclusive: 32.6 µM [inhibitor, single point] |  |
| Cc1[nH]n(-c2ccccc2)c(=O)c1CCO |  | inactive: -2.05% |
| Cc1cc(N2CCCCC2)nc(SCC(=O)c2ccccc2)n1 | inconclusive: 11.2 µM [activator, partial curve, poor fit] |  |
| O=C(OCn1ncc(Br)c(Br)c1=O)c1c(F)cccc1F | active: 9.2 µM |  |
| FC(F)(F)c1ccc(N2CCN(c3cc(-c4ccccc4)nc4ncnn34)CC2)nc1 | inconclusive: 20.6 µM [inhibitor, single point] |  |
| COc1cc(/C=N/n2cc(-c3ccccc3)[nH]c2=S)cc(OC)c1O |  | inactive: -2.73% |

Grouped by structure, the compounds so far containing a tert-butyl group (4)

| Structure (SMILES) | Potency | activity change, negative = inhibition |
| --- | --- | --- |
| CC(C)(C)c1ccc(CNc2ccc([N+](=O)[O-])cn2)cc1 | inconclusive: 4.61 µM [activator, partial curve, poor fit] |  |
| CCCC(C(=O)NC(C)(C)C)N(C(=O)c1snc(C(N)=O)c1N)c1ccc2c(c1)OCCO2 (stereo unspecified) | inconclusive: 2.59 µM [activator, full curve] |  |
| CC(C)(C)CC(=O)Nc1nnc(-c2cccs2)s1 | inconclusive: 4.61 µM [activator, full curve] |  |
| CC(C)(C)NS(=O)(=O)c1ccc(NC(=O)C(Sc2ccccc2)c2ccccc2)cc1 (stereo unspecified) | inconclusive: 29.1 µM [inhibitor, single point] |  |
